# The list shows a part of the results. Repeats are few or missing, and single values can be far off.
# Test system: Saccharomyces cerevisiae BY4743
# Experiment: growth (OD600) with compound + IPBC relative to untreated control; higher = less growth inhibition
# Details: compound concentration: 133 uM; IPBC concentration: 0.5 ug/ml; 20 h
# Method: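 NMCCC compounds (133 uM) combined with IPBC (0.5 ug/ml) against Saccharomyces cerevisiae BY4743 in YPD, 96-well plates. Growth was read as OD600 at 20 h and expressed as % of the untreated control. Single pass.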
row,Structure (SMILES),growth [%]
1,Cc1ccccc1-c1nnc(SCC(=O)NCC2CCCO2)o1 (stereo unspecified) + CCCCNC(=O)OCC#CI [3-iodo-2-propynyl butylcarbamate (IPBC)],102
2,CSc1nc2nc(C)cc(C(F)(F)F)n2n1 + CCCCNC(=O)OCC#CI [3-iodo-2-propynyl butylcarbamate (IPBC)],110
3,CCc1ccc(OC(C)C(=O)Nc2ccc3nsnc3c2)cc1 (stereo unspecified) + CCCCNC(=O)OCC#CI [3-iodo-2-propynyl butylcarbamate (IPBC)],72.7
4,CC1=C(C(=O)OCC(C)C)C(/C=C/c2ccccc2)N2C(=O)CCSC2=N1 (stereo unspecified) + CCCCNC(=O)OCC#CI [3-iodo-2-propynyl butylcarbamate (IPBC)],94.6
5,CS(=O)(=O)N1CCC(C(=O)Nc2cc(-c3cc(Br)ccc3Cl)[nH]n2)CC1 + CCCCNC(=O)OCC#CI [3-iodo-2-propynyl butylcarbamate (IPBC)],110
6,CCOC(=O)c1csc(NC(=O)c2ccc3c(c2)NC(=O)C(C)S3)n1 (stereo unspecified) + CCCCNC(=O)OCC#CI [3-iodo-2-propynyl butylcarbamate (IPBC)],64.7
7,O=C(NCCO)c1nnc(Cc2ccc3c(c2)OCO3)o1 + CCCCNC(=O)OCC#CI [3-iodo-2-propynyl butylcarbamate (IPBC)],92.3
8,Cc1oc(-c2cccs2)nc1COC(=O)c1csc(S(N)(=O)=O)c1 + CCCCNC(=O)OCC#CI [3-iodo-2-propynyl butylcarbamate (IPBC)],109
9,COC(=O)c1cc(NC(=O)Cc2ccc(NC(=O)OC(C)(C)C)cc2)ccc1Cl + CCCCNC(=O)OCC#CI [3-iodo-2-propynyl butylcarbamate (IPBC)],112
10,CCSC1(SCC)\N=C(\N)C2(C#N)C(N\C(=C(\C)C12C#N)C)C3=CC=CC=C3 (stereo unspecified) + CCCCNC(=O)OCC#CI [3-iodo-2-propynyl butylcarbamate (IPBC)],95.7
11,O=C(C1CCS(=O)(=O)C1)N1CCc2ccccc21 (stereo unspecified) + CCCCNC(=O)OCC#CI [3-iodo-2-propynyl butylcarbamate (IPBC)],97.6
12,CC(Sc1n[nH]c(-c2ccc(Cl)cc2)n1)C(=O)NC1CCCCC1 (stereo unspecified) + CCCCNC(=O)OCC#CI [3-iodo-2-propynyl butylcarbamate (IPBC)],79.1
13,CC(C)(C)OC(=O)NC1CCN(C(=O)Nc2ccc(Cl)c(C(F)(F)F)c2)CC1 + CCCCNC(=O)OCC#CI [3-iodo-2-propynyl butylcarbamate (IPBC)],102
14,CCc1ccc(NS(=O)(=O)c2ccc(C(=O)N(C)C)s2)cc1 + CCCCNC(=O)OCC#CI [3-iodo-2-propynyl butylcarbamate (IPBC)],84.6
15,COc1ccc(S(=O)(=O)Nc2ccccc2Cl)cc1NS(=O)(=O)N1CCCCCC1 + CCCCNC(=O)OCC#CI [3-iodo-2-propynyl butylcarbamate (IPBC)],101
16,CC1Cc2ccccc2N1C(=O)COC(=O)c1cc(S(=O)(=O)N(C)C)ccc1Cl (stereo unspecified) + CCCCNC(=O)OCC#CI [3-iodo-2-propynyl butylcarbamate (IPBC)],90.3

# Part of the list above, tab-delimited:
row	Structure (SMILES)	growth [%]
2	CSc1nc2nc(C)cc(C(F)(F)F)n2n1 + CCCCNC(=O)OCC#CI [3-iodo-2-propynyl butylcarbamate (IPBC)]	110
4	CC1=C(C(=O)OCC(C)C)C(/C=C/c2ccccc2)N2C(=O)CCSC2=N1 (stereo unspecified) + CCCCNC(=O)OCC#CI [3-iodo-2-propynyl butylcarbamate (IPBC)]	94.6
9	COC(=O)c1cc(NC(=O)Cc2ccc(NC(=O)OC(C)(C)C)cc2)ccc1Cl + CCCCNC(=O)OCC#CI [3-iodo-2-propynyl butylcarbamate (IPBC)]	112
12	CC(Sc1n[nH]c(-c2ccc(Cl)cc2)n1)C(=O)NC1CCCCC1 (stereo unspecified) + CCCCNC(=O)OCC#CI [3-iodo-2-propynyl butylcarbamate (IPBC)]	79.1
13	CC(C)(C)OC(=O)NC1CCN(C(=O)Nc2ccc(Cl)c(C(F)(F)F)c2)CC1 + CCCCNC(=O)OCC#CI [3-iodo-2-propynyl butylcarbamate (IPBC)]	102
15	COc1ccc(S(=O)(=O)Nc2ccccc2Cl)cc1NS(=O)(=O)N1CCCCCC1 + CCCCNC(=O)OCC#CI [3-iodo-2-propynyl butylcarbamate (IPBC)]	101

# More records follow:

row,Structure (SMILES),growth [%]
1,COc1ccccc1NC(=O)CN(C)S(=O)(=O)c1ccc2c(c1)n(C)c(=O)c(=O)n2C + CCCCNC(=O)OCC#CI [3-iodo-2-propynyl butylcarbamate (IPBC)],107
2,CCn1c(-c2ccc(Br)cc2)cnc1SCC(=O)Nc1ccc(C(N)=O)cc1 + CCCCNC(=O)OCC#CI [3-iodo-2-propynyl butylcarbamate (IPBC)],76.4
3,CCOc1cccc(OCC)c2c(C)[nH+]c(C)c1-2 + CCCCNC(=O)OCC#CI [3-iodo-2-propynyl butylcarbamate (IPBC)],80.9
4,COc1ccc(N(C)C(=O)CN(C)S(=O)(=O)c2ccc3c(c2)c(=O)n(C)c(=O)n3C)c(OC)c1 + CCCCNC(=O)OCC#CI [3-iodo-2-propynyl butylcarbamate (IPBC)],72.5
5,CCn1c(SCC(=O)NCCc2cccs2)nc2cc(S(N)(=O)=O)ccc21 + CCCCNC(=O)OCC#CI [3-iodo-2-propynyl butylcarbamate (IPBC)],98
6,COC1=CC=C(OC)C(=C1)NC(=O)CN2\C=C/N(CC3=CC=C(C)C=C3)C(=O)C2=O + CCCCNC(=O)OCC#CI [3-iodo-2-propynyl butylcarbamate (IPBC)],98.6
7,Cc1cc(C)nc(SCc2nnc(SCC(N)=O)n2-c2ccc(Cl)cc2)n1 + CCCCNC(=O)OCC#CI [3-iodo-2-propynyl butylcarbamate (IPBC)],97.1
8,CC(NS(=O)(=O)c1ccc(Cl)c(Cl)c1)C(=O)Nc1cccc(C#N)c1 (stereo unspecified) + CCCCNC(=O)OCC#CI [3-iodo-2-propynyl butylcarbamate (IPBC)],87.5
9,C=C1N(CCc2ccccn2)C(=O)OC12CCCCC2 + CCCCNC(=O)OCC#CI [3-iodo-2-propynyl butylcarbamate (IPBC)],81.9
10,O=C(CCC\C1=N\[S](=O)(=O)C2=CC=CC=C2N1)OCC3=CC=CC=C3C#N + CCCCNC(=O)OCC#CI [3-iodo-2-propynyl butylcarbamate (IPBC)],103
11,CC(=O)N1CCSc2ccc(S(=O)(=O)Nc3ccc(OC(F)(F)F)cc3)cc21 + CCCCNC(=O)OCC#CI [3-iodo-2-propynyl butylcarbamate (IPBC)],117
12,CN1C(=O)\C=C(\CNC(=O)CCNC(=O)C2=CC(=NC3=CC=CC=C23)O)N(C)C1=O + CCCCNC(=O)OCC#CI [3-iodo-2-propynyl butylcarbamate (IPBC)],84.6
13,COC1=CC=C(F)C=C1CN2\C=N/C3=C(C(=C(C)S3)C)C2=O + CCCCNC(=O)OCC#CI [3-iodo-2-propynyl butylcarbamate (IPBC)],111
14,NC(=O)NC(CC(=O)OCC(=O)c1ccc(F)cc1)c1ccccc1Cl (stereo unspecified) + CCCCNC(=O)OCC#CI [3-iodo-2-propynyl butylcarbamate (IPBC)],100
15,COc1ccc(NC(=O)CSc2nc3nc(C)ccc3o2)c(OC)c1 + CCCCNC(=O)OCC#CI [3-iodo-2-propynyl butylcarbamate (IPBC)],96.8

# From the supplement of paper PMC8007513
